The exact form of at least one protein or probe is not confirmed. For some of these results: At least one result comes from cells or an extract, where the contact may be indirect. For some of these results: A weaker result is weaker than the reference pair of the same experiment.
Experiments:
[1] = biological target: GST-RelA(1-313) (NF-kB p65, DNA binding and IkBa interactive domain) (UniProt Q04206); experiment: competition with a labelled probe; conditions: 100-fold excess unlabeled KB55 duplex; purified recombinant protein; protein details: GST
[2] = biological target: endogenous NF-kB/RelA in TNF-stimulated A549 extracts (Homo sapiens) (UniProt Q04206); experiment: pull-down; conditions: protein in an extract, single-stranded DNA
[3] = biological target: endogenous NF-kB/RelA in TNF-stimulated A549 extracts (Homo sapiens) (UniProt Q04206); experiment: EMSA; conditions: TNF-stimulated A549 nuclear extract; TNF-induced complexes competed by 100-fold WT but not mutant dsNF-kB; also competes dsNF-kB binding (FIG. 2A); protein in an extract; single-stranded DNA

The chains behind the UniProt entries cited, without tags or fusion partners. Residues count along the entry.
UniProt Q04206, 1-313: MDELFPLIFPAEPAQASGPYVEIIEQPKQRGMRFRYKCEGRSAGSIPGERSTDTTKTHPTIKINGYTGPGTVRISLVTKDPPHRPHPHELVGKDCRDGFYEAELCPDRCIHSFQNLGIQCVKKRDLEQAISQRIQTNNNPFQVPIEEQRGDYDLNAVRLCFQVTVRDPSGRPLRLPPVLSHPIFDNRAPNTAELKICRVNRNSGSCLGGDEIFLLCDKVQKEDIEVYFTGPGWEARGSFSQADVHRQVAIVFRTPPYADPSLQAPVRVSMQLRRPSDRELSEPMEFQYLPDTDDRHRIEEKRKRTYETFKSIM
UniProt Q04206, whole entry: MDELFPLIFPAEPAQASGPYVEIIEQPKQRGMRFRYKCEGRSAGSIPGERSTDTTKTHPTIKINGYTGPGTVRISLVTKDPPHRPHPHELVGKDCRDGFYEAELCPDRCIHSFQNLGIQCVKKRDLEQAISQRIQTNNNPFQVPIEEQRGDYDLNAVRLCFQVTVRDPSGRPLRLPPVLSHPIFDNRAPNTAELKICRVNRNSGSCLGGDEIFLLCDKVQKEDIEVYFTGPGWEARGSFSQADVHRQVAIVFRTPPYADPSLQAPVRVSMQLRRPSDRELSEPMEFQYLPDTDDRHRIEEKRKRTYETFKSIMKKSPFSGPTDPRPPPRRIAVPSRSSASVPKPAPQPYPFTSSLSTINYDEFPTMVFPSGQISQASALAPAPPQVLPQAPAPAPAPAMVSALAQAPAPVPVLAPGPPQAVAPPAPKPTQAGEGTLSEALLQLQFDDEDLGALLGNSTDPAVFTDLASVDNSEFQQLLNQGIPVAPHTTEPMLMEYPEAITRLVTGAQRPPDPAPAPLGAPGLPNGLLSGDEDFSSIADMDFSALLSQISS

“ATACGGGAATTCCCG (double strand) [KB55 self-annealed duplex]” was tested. Which binding signal (% P028F4 binding remaining) [1] did it give?
Its binding signal (% P028F4 binding remaining) is 8.

Does “GGGTAACCTTGAGTCACGAATTCAAACCTCTTCACTCCCCTCACTACTGCTTATAAAGGTACCCAACTTACAGCTTCTGG [P028A1, biotinylated]” bind ([2]; no capture from CE, some capture from TNF-stimulated NE, label: biotin, variant of P028A1 nonspecific control)?
Result: binds more weakly

Does “GGGTAACCTTGAGTCACGAATTCAAGCGGGACAGGAGAAACACGGCATGTCAGCGAAGGTACCCAACTTACAGCTTCTGG [P028F4, 5'-biotinylated]” bind ([2]; captures RelA from TNF-stimulated CE and NE, 20 nM aptamer, 4 C, label: 5'-biotin, variant of P028F4)?
Result: binds

Does “GGGTAACCTTGAGTCACGAATTCAAGCGGGACAGGAGAAACACGGCATGTCAGCGAAGGTACCCAACTTACAGCTTCTGG [P028F4]” bind [3]?
Result: binds

— patent US20120263651
